Structures can show the parent of a compound that is named as a salt. The list shows a part of the results. Repeats in this data set agree poorly, so a single value says little.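 Cells: ReNCell VM human fetal ventral-midbrain neural progenitors, differentiated mitogen-free. Blinded raters compared doublecortin-stained (early neurons) or tyrosine hydroxylase-stained (dopaminergic neurons) images with untreated wells, where 0 means no change. After repeats and both raters were averaged, compounds scoring 2 or above became hits for retesting.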
Tests used:
ReNCell VM [1] = assay: neuronal differentiation score (DCX+ cell fraction vs untreated, manual image score) (score (-3 to 3)); higher = more neuronal differentiation; details: 2 uM, 2 weeks
ReNCell VM [2] = assay: dopaminergic neuron differentiation score (TH+ cell fraction vs untreated, manual image score) (score (0 to 3)); higher = more TH+ dopaminergic neuron differentiation; details: 2 uM, 4 weeks, BDNF 10 ng/ml + GDNF 10 ng/ml

CCn1ccnc1CC1COc2ccccc2O1 (stereo not given) [Imiloxan hydrochloride]
inactive: neuronal differentiation score (ReNCell VM [1]; library: LOPAC) 1 | neuronal differentiation score (ReNCell VM [1]; library: Tocriscreen) 0 | dopaminergic neuron differentiation score (ReNCell VM [2]; library: LOPAC) 0 | dopaminergic neuron differentiation score (ReNCell VM [2]; library: Tocriscreen) 0

CC(N/C(=N\C#N)Nc1ccncc1)C(C)(C)C (stereo not given) [Pinacidil]
inactive: neuronal differentiation score (ReNCell VM [1]; library: LOPAC) 0 | neuronal differentiation score (ReNCell VM [1]; library: Prestwick) 0 | dopaminergic neuron differentiation score (ReNCell VM [2]; library: LOPAC) 0 | dopaminergic neuron differentiation score (ReNCell VM [2]; library: Prestwick) 0

CCN(CC)CCOC(=O)C1(C2CCCCC2)CCCCC1 [Dicyclomine hydrochloride]
inactive: neuronal differentiation score (ReNCell VM [1]; library: LOPAC) 1 | neuronal differentiation score (ReNCell VM [1]; library: Prestwick) 0 | dopaminergic neuron differentiation score (ReNCell VM [2]; library: LOPAC) 0 | dopaminergic neuron differentiation score (ReNCell VM [2]; library: Prestwick) 0

Cc1ccc([N+](=O)[O-])cc1S(=O)(=O)N(C)C
inactive: neuronal differentiation score (ReNCell VM [1]; library: LOPAC) 0 | neuronal differentiation score (ReNCell VM [1]; library: Tocriscreen) 0 | dopaminergic neuron differentiation score (ReNCell VM [2]; library: LOPAC) 0 | dopaminergic neuron differentiation score (ReNCell VM [2]; library: Tocriscreen) 0

CNCCC=C1c2ccccc2CCc2ccccc21 [Nortriptyline hydrochloride]
inactive: neuronal differentiation score (ReNCell VM [1]; library: LOPAC) 0 | neuronal differentiation score (ReNCell VM [1]; library: Prestwick) 0 | dopaminergic neuron differentiation score (ReNCell VM [2]; library: LOPAC) 0 | dopaminergic neuron differentiation score (ReNCell VM [2]; library: Prestwick) 0

COc1c(O[C@@H]2O[C@H](CO)[C@@H](O)[C@H](O)[C@H]2O)cc2c(c1OC)-c1ccc(SC)c(=O)cc1[C@@H](NC(C)=O)CC2 [Thiocolchicoside]
inactive: neuronal differentiation score (ReNCell VM [1]; library: Phytochemical) -1 | neuronal differentiation score (ReNCell VM [1]; library: Prestwick) 0 | dopaminergic neuron differentiation score (ReNCell VM [2]; library: Phytochemical) 0 | dopaminergic neuron differentiation score (ReNCell VM [2]; library: Prestwick) 0

Cc1nc2c(OCc3ccccc3)cccn2c1CC#N
inactive: neuronal differentiation score (ReNCell VM [1]; library: LOPAC) -1 | neuronal differentiation score (ReNCell VM [1]; library: Tocriscreen) 0 | dopaminergic neuron differentiation score (ReNCell VM [2]; library: LOPAC) 0 | dopaminergic neuron differentiation score (ReNCell VM [2]; library: Tocriscreen) 0

O=C(/C=C/c1ccc(O)c(O)c1)OCCc1ccccc1 [Caffeic acid phenethyl ester]
inactive: neuronal differentiation score (ReNCell VM [1]; library: LOPAC) 0 | neuronal differentiation score (ReNCell VM [1]; library: Tocriscreen) 1 | dopaminergic neuron differentiation score (ReNCell VM [2]; library: LOPAC) 0 | dopaminergic neuron differentiation score (ReNCell VM [2]; library: Tocriscreen) 0

CC(C)C(=O)Nc1ccc([N+](=O)[O-])c(C(F)(F)F)c1 [Flutamide]
inactive: neuronal differentiation score (ReNCell VM [1]; library: LOPAC) 0 | neuronal differentiation score (ReNCell VM [1]; library: Prestwick) 0 | dopaminergic neuron differentiation score (ReNCell VM [2]; library: LOPAC) 0 | dopaminergic neuron differentiation score (ReNCell VM [2]; library: Prestwick) 0

Cc1ccccc1N1CCN(S(=O)(=O)C[C@]23CC[C@H](C[C@@H]2NC(=O)[C@@H](N)CCS(C)(=O)=O)C3(C)C)CC1 [L-368,899 hydrochloride]
inactive: neuronal differentiation score (ReNCell VM [1]; library: LOPAC) 0 | neuronal differentiation score (ReNCell VM [1]; library: Tocriscreen) 0 | dopaminergic neuron differentiation score (ReNCell VM [2]; library: LOPAC) 0 | dopaminergic neuron differentiation score (ReNCell VM [2]; library: Tocriscreen) 0

CC(C)(Oc1ccc(Cl)cc1)C(=O)O [Clofibric acid]
inactive: neuronal differentiation score (ReNCell VM [1]; library: Prestwick) 0 | neuronal differentiation score (ReNCell VM [1]; library: Tocriscreen) 0 | dopaminergic neuron differentiation score (ReNCell VM [2]; library: Prestwick) 0 | dopaminergic neuron differentiation score (ReNCell VM [2]; library: Tocriscreen) 0

O=C(Nc1ccc([N+](=O)[O-])cc1Cl)c1cc(Cl)ccc1O [Niclosamide]
inactive: neuronal differentiation score (ReNCell VM [1]; library: LOPAC) 0 | neuronal differentiation score (ReNCell VM [1]; library: Prestwick) -1 | dopaminergic neuron differentiation score (ReNCell VM [2]; library: LOPAC) 0 | dopaminergic neuron differentiation score (ReNCell VM [2]; library: Prestwick) 0

Pulled by structure from the list above (two):
CC(C)C(=O)Nc1ccc([N+](=O)[O-])c(C(F)(F)F)c1 [Flutamide]
inactive: neuronal differentiation score (ReNCell VM [1]; library: LOPAC) 0 | neuronal differentiation score (ReNCell VM [1]; library: Prestwick) 0 | dopaminergic neuron differentiation score (ReNCell VM [2]; library: LOPAC) 0 | dopaminergic neuron differentiation score (ReNCell VM [2]; library: Prestwick) 0

O=C(Nc1ccc([N+](=O)[O-])cc1Cl)c1cc(Cl)ccc1O [Niclosamide]
inactive: neuronal differentiation score (ReNCell VM [1]; library: LOPAC) 0 | neuronal differentiation score (ReNCell VM [1]; library: Prestwick) -1 | dopaminergic neuron differentiation score (ReNCell VM [2]; library: LOPAC) 0 | dopaminergic neuron differentiation score (ReNCell VM [2]; library: Prestwick) 0

Additional entries follow.

O=[N+]([O-])c1cccc2c(Br)[nH]nc12 [3-Bromo-7-nitroindazole]
inactive: neuronal differentiation score (ReNCell VM [1]; library: LOPAC) 0 | neuronal differentiation score (ReNCell VM [1]; library: Tocriscreen) 0 | dopaminergic neuron differentiation score (ReNCell VM [2]; library: LOPAC) 0 | dopaminergic neuron differentiation score (ReNCell VM [2]; library: Tocriscreen) 0

C[C@]12C=CC(=O)C=C1CC[C@H]1[C@@H]3C[C@@H](O)[C@](O)(C(=O)CO)[C@@]3(C)C[C@H](O)[C@@]12F [Triamcinolone]
inactive: neuronal differentiation score (ReNCell VM [1]; library: LOPAC) 0 | neuronal differentiation score (ReNCell VM [1]; library: Prestwick) 0 | dopaminergic neuron differentiation score (ReNCell VM [2]; library: LOPAC) 0 | dopaminergic neuron differentiation score (ReNCell VM [2]; library: Prestwick) 0

Oc1c2ccccc2c2c3c(cccc13)N=N2
inactive: neuronal differentiation score (ReNCell VM [1]; library: LOPAC) 0 | neuronal differentiation score (ReNCell VM [1]; library: Tocriscreen) 0 | dopaminergic neuron differentiation score (ReNCell VM [2]; library: LOPAC) 0 | dopaminergic neuron differentiation score (ReNCell VM [2]; library: Tocriscreen) 0

CC(C)(C)NC(=O)[C@H]1CC[C@H]2[C@@H]3CC[C@H]4NC(=O)C=C[C@]4(C)[C@H]3CC[C@]12C [Finasteride]
inactive: neuronal differentiation score (ReNCell VM [1]; library: LOPAC) 1 | neuronal differentiation score (ReNCell VM [1]; library: Prestwick) 0 | dopaminergic neuron differentiation score (ReNCell VM [2]; library: LOPAC) 0 | dopaminergic neuron differentiation score (ReNCell VM [2]; library: Prestwick) 0

Nc1nnc(-c2cccc(Cl)c2Cl)c(N)n1 [Lamotrigine]
inactive: neuronal differentiation score (ReNCell VM [1]; library: LOPAC) 0 | neuronal differentiation score (ReNCell VM [1]; library: Prestwick) 0 | dopaminergic neuron differentiation score (ReNCell VM [2]; library: LOPAC) 0 | dopaminergic neuron differentiation score (ReNCell VM [2]; library: Prestwick) 0

Clc1ccccc1C(c1ccccc1)(c1ccccc1)n1ccnc1 [Clotrimazole]
inactive: neuronal differentiation score (ReNCell VM [1]; library: LOPAC) -1 | neuronal differentiation score (ReNCell VM [1]; library: Prestwick) 0 | dopaminergic neuron differentiation score (ReNCell VM [2]; library: LOPAC) 0 | dopaminergic neuron differentiation score (ReNCell VM [2]; library: Prestwick) 1

NS(=O)(=O)c1cc2c(cc1Cl)NC(C1CC3C=CC1C3)NS2(=O)=O (stereo not given) [Cyclothiazide]
inactive: neuronal differentiation score (ReNCell VM [1]; library: LOPAC) 0 | neuronal differentiation score (ReNCell VM [1]; library: Tocriscreen) 0 | dopaminergic neuron differentiation score (ReNCell VM [2]; library: LOPAC) 0 | dopaminergic neuron differentiation score (ReNCell VM [2]; library: Tocriscreen) 0

OC(CN1CCC(Cc2ccc(F)cc2)CC1)c1ccc(Cl)cc1 (stereo not given) [Eliprodil]
inactive: neuronal differentiation score (ReNCell VM [1]; library: LOPAC) 0 | neuronal differentiation score (ReNCell VM [1]; library: Tocriscreen) 0 | dopaminergic neuron differentiation score (ReNCell VM [2]; library: LOPAC) 0 | dopaminergic neuron differentiation score (ReNCell VM [2]; library: Tocriscreen) 0
